Results published in publication PMC3486892.
No constants are given. Whether binding was seen depends on the method and setting. Binding seen in cells or lysates may run through a third protein. Some entries that bind do so weakly or less than the wild type. For some of these results: Sequences can lack the tags named with a protein.

The chains behind the UniProt entries cited, without tags or fusion partners.
UniProt Q5AP95: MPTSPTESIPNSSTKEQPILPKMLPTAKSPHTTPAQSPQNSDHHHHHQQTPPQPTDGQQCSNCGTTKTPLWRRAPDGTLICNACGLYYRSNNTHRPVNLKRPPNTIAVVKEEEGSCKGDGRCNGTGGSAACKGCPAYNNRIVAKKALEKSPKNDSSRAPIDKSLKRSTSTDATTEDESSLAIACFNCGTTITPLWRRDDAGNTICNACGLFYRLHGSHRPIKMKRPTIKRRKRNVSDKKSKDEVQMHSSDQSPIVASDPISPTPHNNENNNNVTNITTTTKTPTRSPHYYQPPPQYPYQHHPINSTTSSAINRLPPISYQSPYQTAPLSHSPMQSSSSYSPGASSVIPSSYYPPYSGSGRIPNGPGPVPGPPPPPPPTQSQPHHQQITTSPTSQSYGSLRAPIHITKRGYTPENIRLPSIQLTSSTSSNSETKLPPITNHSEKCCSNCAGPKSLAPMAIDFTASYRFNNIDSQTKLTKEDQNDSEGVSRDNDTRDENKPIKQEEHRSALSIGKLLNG
UniProt Q59UY7: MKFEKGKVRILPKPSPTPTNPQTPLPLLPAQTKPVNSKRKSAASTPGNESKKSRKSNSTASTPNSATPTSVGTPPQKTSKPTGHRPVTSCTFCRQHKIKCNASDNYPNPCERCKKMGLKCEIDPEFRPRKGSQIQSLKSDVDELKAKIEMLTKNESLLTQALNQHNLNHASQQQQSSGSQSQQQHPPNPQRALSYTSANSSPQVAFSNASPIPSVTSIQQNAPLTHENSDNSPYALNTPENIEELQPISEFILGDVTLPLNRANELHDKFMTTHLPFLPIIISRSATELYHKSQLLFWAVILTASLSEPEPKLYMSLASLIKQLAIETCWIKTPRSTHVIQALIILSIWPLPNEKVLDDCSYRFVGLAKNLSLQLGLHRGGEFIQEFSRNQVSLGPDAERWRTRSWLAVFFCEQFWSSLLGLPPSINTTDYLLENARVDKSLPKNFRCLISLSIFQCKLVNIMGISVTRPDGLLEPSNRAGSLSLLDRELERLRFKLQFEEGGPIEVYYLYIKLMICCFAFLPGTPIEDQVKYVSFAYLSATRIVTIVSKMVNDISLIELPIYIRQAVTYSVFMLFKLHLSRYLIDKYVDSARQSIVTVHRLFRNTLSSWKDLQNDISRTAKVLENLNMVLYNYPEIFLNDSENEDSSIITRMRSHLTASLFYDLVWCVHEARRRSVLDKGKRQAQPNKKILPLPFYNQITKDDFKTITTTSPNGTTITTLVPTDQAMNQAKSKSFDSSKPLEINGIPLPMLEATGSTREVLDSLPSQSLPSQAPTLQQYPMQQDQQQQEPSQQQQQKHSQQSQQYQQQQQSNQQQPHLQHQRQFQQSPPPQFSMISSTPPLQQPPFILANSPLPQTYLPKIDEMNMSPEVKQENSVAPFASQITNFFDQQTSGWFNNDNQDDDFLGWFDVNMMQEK

Key:
Assay in all cases: co-IP; IgG-sepharose precipitates the TAP-tagged protein from nondenaturing whole cell extracts of doubly tagged C. albicans grown iron-replete (YPD) or iron-depleted (YPD with DIP); 3 mg protein, 24 h at 4°C; lysis buffer 20 mM Tris pH 7.4, 100 mM KCl, 5 mM MgCl2, 20% glycerol; TEV eluate; immunoblot with anti-Myc
Sfu1-TAP (C. albicans) = Sfu1-TAP (C. albicans) (UniProt Q5AP95)
Ssn3-TAP (C. albicans) = molecular target: T1, Ssn3-TAP (C. albicans) (UniProt Q5AHK2)
T1 sequence: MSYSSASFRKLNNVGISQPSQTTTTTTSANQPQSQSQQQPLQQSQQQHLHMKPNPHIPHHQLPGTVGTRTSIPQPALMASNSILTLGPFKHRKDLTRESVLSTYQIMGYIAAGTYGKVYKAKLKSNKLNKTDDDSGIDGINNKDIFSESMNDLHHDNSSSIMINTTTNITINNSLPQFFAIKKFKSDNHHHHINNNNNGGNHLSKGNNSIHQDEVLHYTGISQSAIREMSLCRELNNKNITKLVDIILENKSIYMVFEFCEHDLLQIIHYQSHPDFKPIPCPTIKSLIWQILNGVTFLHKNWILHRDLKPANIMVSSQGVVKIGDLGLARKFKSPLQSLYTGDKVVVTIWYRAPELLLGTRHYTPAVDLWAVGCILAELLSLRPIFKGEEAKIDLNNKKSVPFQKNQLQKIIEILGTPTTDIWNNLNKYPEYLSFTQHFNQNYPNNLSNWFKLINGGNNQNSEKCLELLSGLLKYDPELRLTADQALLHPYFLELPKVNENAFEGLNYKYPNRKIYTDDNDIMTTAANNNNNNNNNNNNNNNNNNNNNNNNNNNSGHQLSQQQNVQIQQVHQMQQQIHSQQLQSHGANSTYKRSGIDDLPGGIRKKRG

Sef1-TAP (C. albicans) = Sef1-TAP (C. albicans) (UniProt Q59UY7)

Molecule: Sef1-Myc (from UniProt Q59UY7 1-917)
- binding (Sfu1-TAP (C. albicans)): binds
- binding (Ssn3-TAP (C. albicans)): binds

Molecule: Sfu1-Myc (from UniProt Q5AP95 1-517)
- binding (Sef1-TAP (C. albicans)): binds

B1: Ssn3-Myc (protein, UniProt Q5AHK2 1-608)
chain: MSYSSASFRKLNNVGISQPSQTTTTTTSANQPQSQSQQQPLQQSQQQHLHMKPNPHIPHHQLPGTVGTRTSIPQPALMASNSILTLGPFKHRKDLTRESVLSTYQIMGYIAAGTYGKVYKAKLKSNKLNKTDDDSGIDGINNKDIFSESMNDLHHDNSSSIMINTTTNITINNSLPQFFAIKKFKSDNHHHHINNNNNGGNHLSKGNNSIHQDEVLHYTGISQSAIREMSLCRELNNKNITKLVDIILENKSIYMVFEFCEHDLLQIIHYQSHPDFKPIPCPTIKSLIWQILNGVTFLHKNWILHRDLKPANIMVSSQGVVKIGDLGLARKFKSPLQSLYTGDKVVVTIWYRAPELLLGTRHYTPAVDLWAVGCILAELLSLRPIFKGEEAKIDLNNKKSVPFQKNQLQKIIEILGTPTTDIWNNLNKYPEYLSFTQHFNQNYPNNLSNWFKLINGGNNQNSEKCLELLSGLLKYDPELRLTADQALLHPYFLELPKVNENAFEGLNYKYPNRKIYTDDNDIMTTAANNNNNNNNNNNNNNNNNNNNNNNNNNNSGHQLSQQQNVQIQQVHQMQQQIHSQQLQSHGANSTYKRSGIDDLPGGIRKKRG
- binding (Sef1-TAP (C. albicans)): binds
